PMC12040169 (PLOS Biology, 2025)
The list shows a part of the results.

system: T1, CTL2-GFP (C. trachomatis L2/434/Bu, GFP-expressing); design: species or system HeLa; Intracellular C. trachomatis growth in HeLa cells, bulk GFP fluorescence relative to DMSO; details: bulk GFP, single well; 28.5 h, 10 µM; inhibitor
T1 construct: L2/434/Bu, GFP-expressing

Compound	% of control remaining
CC(CCN(CCN)C(=O)N1CCC(CNS(C)(=O)=O)(c2ccccc2)CC1)c1ccccc1 (stereo not drawn) [CBK002335C]	129.565%
Cc1ccc(C(=O)NC2CCCC2)cc1[N+](=O)[O-] [CBK001993]	49.5788%
Cn1c(CSCc2ccccc2F)nnc1SCC(=O)c1ccc(Br)cc1 [CBK269143]	126.716%
NC(=O)C1CCN(C(=O)CCCSc2nc(-c3ccco3)cc(C(F)(F)F)n2)CC1 [CBK268844]	91.7796%
CC(C)CN1C(=O)c2ccc(C(=O)NCc3ccc(C(=O)O)cc3)cc2C1=O [CBK286898]	110.887%
FC(F)(F)c1ccnc(SCc2ccc(Cl)c(Cl)c2)n1 [CBK103723]	92.1034%
O=C(Nc1ncn(CC(=O)N2CCCCCC2)n1)c1cccc(F)c1 [CBK304904]	115.346%
C1=CC2CC1CC2CN1CCC(N(CCc2ccccc2)Cc2ccccc2)CC1 (stereo not drawn) [CBK264613G]	100%
COc1ccc(NC(=O)Cc2csc(NC(C)=O)n2)cc1 [CBK287650]	115.845%
COC(=O)c1sc2ncccc2c1NS(=O)(=O)Cc1ccccc1[N+](=O)[O-] [CBK049974]	100.464%
c1cc2c(cc1CN1CCC(Oc3cncc(OCCN4CCOCC4)n3)C1)OCO2 (stereo not drawn) [CBK084487]	120.123%
Cc1cn([C@H]2C[C@@H](O)[C@@H](CO)O2)c(=O)nc1-n1cncn1 [CBK201235]	80.1459%
O=C(NCCO)c1cccc(-c2cc(N3CCCC3CO)n3nccc3n2)c1 (stereo not drawn) [CBK037187]	149.141%
CCc1nc2cc(NC(=O)Cn3cc(C)cn3)ccc2n1CC [CBK281608]	142.791%
O=C(COc1ccc2ccccc2c1)OCC(=O)c1ccc([N+](=O)[O-])cc1 [CBK261586]	121.446%
C[C@]12CN(Cc3cccs3)C[C@H]1C(=O)Nc1ccccc1C(=O)N2 [CBK284705]	178.676%
Cc1ccn(CCNC(=O)CSc2nccc3ccccc23)n1 [CBK282678]	100.771%
CS(=O)(=O)NCC1(c2ccccc2)CCN(S(=O)(=O)c2c(Cl)cccc2Cl)CC1 [CBK051633]	145.022%
CCOC(=O)c1c(NC(=O)CSc2nc[nH]n2)sc2c1CCC2 [CBK267225]	141.632%
Cc1ccc(NC(=O)c2cc(NC(=O)C3C4C=CC(C4)C3C(=O)O)ccc2N2CCCCC2)cc1 (stereo not drawn) [CBK265350]	119.786%
C=CCN1C(=O)CC2(C1=O)C(=O)N(CCCn1c(=O)c3c(ncn3C)n(C)c1=O)c1ccc(OC)cc12 (stereo not drawn) [CBK075701]	147.813%
COc1ccc(CN2CCOCC2)cc1Br [CBK027346]	108.506%
Oc1noc(O)c1-c1ncc(C(F)(F)F)cc1Cl [CBK007439]	150.794%
O=C(Cc1c[nH]c2ccccc12)N1CCC2(CCN(C(=O)c3cccnc3)C2)C1 (stereo not drawn) [CBK131453]	118.608%
C=CCNC(=O)CCn1c(C(C)C)cc2cccnc21 [CBK283289]	92.0257%
CCC(C)(C)c1ccc(S(=O)(=O)N(CCC#N)Cc2cccnc2)cc1 [CBK043960]	119.65%

Compound	% of control remaining
CCCn1c(SCc2csc(COc3ccc(Cl)cc3)n2)n[nH]c1=O [CBK295140]	145.046%
COc1ccc(C(=O)N2CCC3(CCCN(Cc4nc5ccccc5[nH]4)C3)C2)cc1OC (stereo not drawn) [CBK132847]	100%
CCOc1ccc(S(=O)(=O)N2CCCN(Cc3c[nH]c(C)n3)CC2)c2cccnc12 [CBK063031]	79.8064%
c1ccc(SCCCSc2ccccn2)cc1 [CBK021704]	155.223%
COc1cc(C)nc(NCc2cnn(C)c2C)n1 [CBK306277]	171.903%
COCC(=O)N[C@H]1C[C@@H](Cc2cc(C(C)(C)C)on2)C1(C)C [CBK289244]	120.419%
CCOC(=O)c1cnc(SCC(=O)N2c3ccccc3SC3C=CC=CC32)nc1N (stereo not drawn) [CBK269029]	139.846%
COc1ccc(CCN(CCN2CCOCC2)C(=O)NCc2ccc3c(c2)OCO3)cc1OC [CBK160540]	60.2508%
Cc1nc(C)c(CCC(=O)NC2CCSc3c(F)cccc32)c(=O)[nH]1 (stereo not drawn) [CBK295601]	145.089%
COc1cc(C(=O)N2CCC3(CCN(C(=O)Cc4c[nH]c5ccccc45)C3)C2)cc(OC)c1OC (stereo not drawn) [CBK131448]	112.456%
Cc1[nH]c(=O)[nH]c(=O)c1N(CCO)CCO [CBK262052]	119.039%
CC(C)(C)OC(=O)N1CCN(c2cc(N)ncn2)CC1 [CBK001963]	72.5018%
CCN(CC)c1cc(N2CCCNCC2)ccc1S(=O)(=O)c1cccc(F)c1 [CBK018509C]	132.842%
CC(C)C(CNCc1ccn(C)c1)c1ccnn1C (stereo not drawn) [CBK304822]	95.1788%
O=C(COc1ccccc1)N1CCN(Cc2ccncc2)CC1 [CBK072595]	117.634%
COc1ccc(Cc2nc(C(C)(C)C)cs2)cc1 [CBK021497B]	134.316%
O=C(Cn1cnnn1)N1CCN(Cc2ccccc2)CC1 [CBK026053]	114.121%
CC(C)(C)OC(=O)c1cc(C(=O)O)ccc1O [CBK000394]	122.055%
Cc1cc(-c2cn3cc(C(=O)NCCN(C)C)nc3c(=O)n2C)c(C)o1 [CBK307160]	97.4271%
Cc1ccc(C2(C(=O)N(C)CCN3CCCCC3)CCOCC2)cc1 [CBK281833]	118.367%
CC1(C)CC(NC(=O)c2cc3cccnc3[nH]2)CCO1 (stereo not drawn) [CBK305467]	116.037%
N#Cc1c(NC(=O)CSc2nnc(-c3ccncc3)o2)sc2c1CCCC2 [CBK266374]	142.537%
O=C1C2C(c3ccc(F)cc3)NC(c3ccc(F)cc3)C1C(c1ccc(F)cc1)NC2c1ccc(F)cc1 (stereo not drawn) [CBK261288]	83.5709%
CCCC/C=C/c1cncc(Nc2cc(OC)c(OC)c(OC)c2)n1 [CBK065155]	113.073%
CCN(CC)C(=O)CN1CCN(c2nccnc2Oc2ccc(OC)c(OC)c2)CC1 [CBK083051T]	141.036%
COc1cccc(C(c2nnnn2C(C)(C)C)N2CCN(c3cccc(Cl)c3)CC2)c1 (stereo not drawn) [CBK141669]	101.947%

Three compounds picked at random from those above:
Compound	% of control remaining
COc1cccc(C(c2nnnn2C(C)(C)C)N2CCN(c3cccc(Cl)c3)CC2)c1 (stereo not drawn) [CBK141669]	101.947%
CCN(CC)C(=O)CN1CCN(c2nccnc2Oc2ccc(OC)c(OC)c2)CC1 [CBK083051T]	141.036%
CCOc1ccc(S(=O)(=O)N2CCCN(Cc3c[nH]c(C)n3)CC2)c2cccnc12 [CBK063031]	79.8064%

(cont.)

Compound	% of control remaining
COc1ccc(-c2ccc3c(c2)C(=O)N2CC[C@H](NC(=O)C4CCCC4)[C@H]2C(=O)N3)cc1 [CBK289330]	141.826%
O=c1[nH]c(=O)c2nnc(N/N=C\c3ccc(O)cc3)nc2[nH]1 [CBK263312]	95.4552%
O=C(NCCCN1CCOCC1)c1cnc(-c2ccccc2)c(-c2ccncc2)c1 [CBK036664]	174.2%
Cc1ccccc1NC(=O)c1cnn2cccnc12 [CBK288217]	148.609%
COc1ccc(NC(=S)NCCCN(C)C)cc1 [CBK264292]	126.01%
COc1ccc(C2=CC(c3ccc(C(F)(F)F)cc3)n3nnnc3N2)cc1OC (stereo not drawn) [CBK296131]	107.677%
COc1ccc(S(=O)(=O)Nc2nnc(C(C)C)s2)cc1 [CBK045525]	100%
CC(Sc1ccccn1)C(=O)Nc1ccc(S(N)(=O)=O)cc1 (stereo not drawn) [CBK265579]	123.144%
COc1cc(-c2cn3ccnc3c(NC3CC3)n2)cc(OC)c1OC [CBK066184]	155.043%
CCCn1c(SC(C)C(=O)Nc2ccc(S(=O)(=O)NC(C)C)cc2)n[nH]c1=O (stereo not drawn) [CBK295169]	136.549%
COCCN1CCCC(NS(=O)(=O)c2cccc(C(C)=O)c2)C1 (stereo not drawn) [CBK305290]	113.076%
O=C(O)Cc1nnc(CNc2ccc(Cl)cc2)[nH]1 [CBK286651]	106.732%
Cc1ccc(C)c(C(=O)C2=C(O)C(=O)N(CCCN3CCOCC3)C2c2cccc([N+](=O)[O-])c2)c1 (stereo not drawn) [CBK265503]	119.579%
COc1ccccc1CCCNC(=O)c1ccc(=O)n(C)c1 [CBK282636]	113.822%
Cc1ccc(NC(=O)Cn2cnc3c(-c4ccccc4)csc3c2=O)cc1 [CBK287812]	105.202%
O=S(=O)(c1ccc(F)cc1)c1nc(-c2cccs2)oc1N1CCN(Cc2ccccc2)CC1 [CBK267672]	110.808%
CC(=O)Nc1ccccc1NC(=O)C(C)Oc1ccc(Cl)cc1Cl (stereo not drawn) [CBK263954]	96.5497%
CCc1nc2ccc(C(=O)N3CCNC(=O)C3)cn2c1N(CCC(C)C)CCN(C)C [CBK146255]	115.143%
C#CCNC(=O)CC[C@H]1CNC(=O)[C@@H]2[C@@H](CCN2Cc2ccc(O)cc2)N1C [CBK289017]	131.681%
COc1ccccc1C(=O)Nc1sc2c(c1C(=O)NCc1ccco1)CCCC2 [CBK265105]	161.343%
CC(C)(C)c1ccc(Oc2ccc(NC(=O)CCCC(=O)O)cc2)cc1 [CBK264339]	120.876%
Cc1c(C(=O)N(C)CC(F)(F)F)nnn1-c1ccc(F)cc1 [CBK282214]	122.227%
Cc1ccc(Cc2cnc(NC(=O)C3CNC(=O)N3)s2)cc1F (stereo not drawn) [CBK305919]	96.5441%
CCCCn1c(NCc2nc3ccccc3n2C)nc2ccccc21 [CBK264177]	100%
O=C(CCN1CCOCC1)Nc1ccc(Cl)cc1 [CBK263820]	115.321%
N/C(=N\OC(=O)COc1cccc2ccccc12)c1ccc(Cl)cc1 [CBK263004]	109.914%
